No constants are given. Whether binding was seen depends on the method and setting. In cells and extracts the contact can be indirect. Some results given as binding are weak or reduced against the parent protein; the word gives no strength.
Target: GST-EB1 (UniProt Q15691)
Assay: pull-down; GST-EB1 on glutathione-agarose beads pre-incubated with saturating amounts of antibody 1A11 or non-specific IgG 4 U, washed, then used in precipitations from NRK-52E cell extracts (or extracts of cells expressing GFP-APC-C3); SDS-PAGE and Western blotting; only the target purified

Sequences of proteins named here, by UniProt entry; tags and fusion partners are left off.
UniProt Q15691: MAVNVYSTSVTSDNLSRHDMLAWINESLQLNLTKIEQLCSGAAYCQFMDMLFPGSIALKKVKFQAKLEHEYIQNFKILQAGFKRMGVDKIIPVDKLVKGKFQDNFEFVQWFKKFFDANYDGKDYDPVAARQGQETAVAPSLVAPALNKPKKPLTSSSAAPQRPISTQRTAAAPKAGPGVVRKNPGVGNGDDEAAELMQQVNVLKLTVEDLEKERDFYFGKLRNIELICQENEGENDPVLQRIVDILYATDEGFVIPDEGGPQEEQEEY

binding: binds
B1: MCAK (protein, UniProt Q62909 1-671)
chain: MIDIDDVAAINPELVQLLPLRPKDSLPLQENVTIPKQKRKSVNSKIPGPKEGLRSRSTRISTVSEVRIPAQENEMEVELPVSTNSRKPFPIHTGHPRPSCSTVTELPLLMISEEAEEQAHSTRSTSSANPGNSVRRKSCIVKEMEKMKNKREEKRAQNSEIRIKRAQEYDNSFPNWEFARMIKEFRVTMDCNPLTVTDPIEEHRICVCVRKRPLNKQELAKKEIDVISVPSKCLLLVHEPKLKVDLTKYLENQAFCFDFAFDETASNEVVYRFTARPLVQTIFEGGKATCFAYGQTGSGKTHTMGGDLSGKSQNASKGIYAMASRDVFLLKNQPRYRSLNLEVYVTFFEIYNGKVFELLNKKAKLRVLEDSKQQVQVVGLQEYLVTCADDVIKMINMGSACRTSGQTFANSNSSRSHACFQILLRAKGRLHGKFSLVDLAGNERGADTSSADRQTRMEGAEINKSLLALKESIRALGQNKAHTPFRESKLTQVLRDSFIGENSRTCMIAMISPGISSCEYTLNTLRYADRVKELSPHSGPSGEQAVQMETEEMDASSHGASLTGNEEEELSSQMSSFNEAMTQIRELEERAMEELREIIQQGPSWLELSEMTDQPDYDLETFVNKAESALTQQAKQAKHFSALQEVIKALRLAMQLEEQASKQINSKKRHQ

— publication PMC3244432
